From patent US20220259297A1
No constants are given. Whether binding was seen depends on the method and setting. Some results given as binding are weak or reduced against the parent protein; the word gives no strength.

Sequences of proteins named here, by UniProt entry; tags and fusion partners are left off. A change or cut given only in a name is not applied to a line headed by its entry.
UniProt P36896: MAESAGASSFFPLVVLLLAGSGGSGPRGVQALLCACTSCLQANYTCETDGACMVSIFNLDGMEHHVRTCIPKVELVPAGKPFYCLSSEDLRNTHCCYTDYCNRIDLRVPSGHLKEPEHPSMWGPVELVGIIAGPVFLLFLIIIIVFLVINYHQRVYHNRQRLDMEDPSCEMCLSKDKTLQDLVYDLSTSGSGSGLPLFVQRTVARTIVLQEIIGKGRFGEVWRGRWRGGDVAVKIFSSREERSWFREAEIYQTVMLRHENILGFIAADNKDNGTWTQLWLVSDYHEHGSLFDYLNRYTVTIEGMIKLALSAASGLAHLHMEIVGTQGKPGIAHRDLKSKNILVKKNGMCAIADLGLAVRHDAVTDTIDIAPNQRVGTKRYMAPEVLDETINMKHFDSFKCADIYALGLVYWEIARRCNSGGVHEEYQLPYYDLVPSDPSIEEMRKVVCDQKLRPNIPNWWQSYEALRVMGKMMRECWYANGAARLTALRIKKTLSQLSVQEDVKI
UniProt P27037: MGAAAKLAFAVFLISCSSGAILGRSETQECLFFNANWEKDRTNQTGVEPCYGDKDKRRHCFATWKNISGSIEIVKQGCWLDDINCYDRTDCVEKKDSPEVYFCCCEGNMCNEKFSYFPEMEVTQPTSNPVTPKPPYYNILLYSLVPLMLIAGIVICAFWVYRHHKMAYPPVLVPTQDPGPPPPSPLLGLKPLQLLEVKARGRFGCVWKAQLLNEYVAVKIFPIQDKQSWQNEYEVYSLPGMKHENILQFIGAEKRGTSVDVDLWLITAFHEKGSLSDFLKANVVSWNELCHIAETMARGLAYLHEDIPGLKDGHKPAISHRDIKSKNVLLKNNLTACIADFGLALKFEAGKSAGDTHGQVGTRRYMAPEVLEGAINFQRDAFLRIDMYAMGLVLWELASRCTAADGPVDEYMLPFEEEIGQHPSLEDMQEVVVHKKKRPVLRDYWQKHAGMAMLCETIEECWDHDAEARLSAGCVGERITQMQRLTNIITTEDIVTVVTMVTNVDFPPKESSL

Tests used:
[1] = molecular target: T1, GDF11 (UniProt O95390); assay: Biacore (SPR), ligands ranked by off-rate koff
T1 sequence (looked up): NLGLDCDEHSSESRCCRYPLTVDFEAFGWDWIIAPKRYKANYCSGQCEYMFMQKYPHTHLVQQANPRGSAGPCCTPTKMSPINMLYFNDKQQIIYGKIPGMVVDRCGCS

[2] = molecular target: T1, GDF11; assay: SPR (Biacore), FIG. 49
[3] = molecular target: T2, activin B (UniProt P09529); assay: SPR (Biacore), FIG. 49
T2 sequence (looked up): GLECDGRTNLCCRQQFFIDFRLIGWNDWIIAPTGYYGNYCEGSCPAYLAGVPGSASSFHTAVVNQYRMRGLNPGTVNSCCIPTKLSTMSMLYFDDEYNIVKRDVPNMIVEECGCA

[4] = molecular target: T3, GDF8 (UniProt O14793); assay: Biacore (SPR), ligands ranked by off-rate koff
T3 sequence (looked up): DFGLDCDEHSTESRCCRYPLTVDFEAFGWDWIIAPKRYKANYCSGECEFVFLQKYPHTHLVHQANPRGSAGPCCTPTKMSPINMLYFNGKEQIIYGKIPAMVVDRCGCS

[5] = molecular target: T2, activin B; assay: Biacore (SPR), ligands ranked by off-rate koff
[6] = molecular target: T4, GDF3 (UniProt Q9NR23); assay: Biacore (SPR), ligands ranked by off-rate koff
T4 sequence (looked up): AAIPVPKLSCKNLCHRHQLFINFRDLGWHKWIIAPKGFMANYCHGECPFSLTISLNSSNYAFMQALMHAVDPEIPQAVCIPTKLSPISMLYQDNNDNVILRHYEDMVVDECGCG

[7] = molecular target: T5, BMP10 (UniProt O95393); assay: SPR (Biacore), FIG. 53
T5 sequence (looked up): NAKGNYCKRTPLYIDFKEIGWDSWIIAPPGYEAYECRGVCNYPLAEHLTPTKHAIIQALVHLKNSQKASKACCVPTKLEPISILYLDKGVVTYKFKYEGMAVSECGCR

[8] = molecular target: T6, BMP15 (UniProt O95972); assay: SPR (Biacore), FIG. 53
T6 sequence (looked up): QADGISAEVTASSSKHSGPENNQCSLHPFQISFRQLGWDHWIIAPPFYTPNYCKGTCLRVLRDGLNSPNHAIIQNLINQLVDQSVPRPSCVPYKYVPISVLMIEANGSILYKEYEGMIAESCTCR

[9] = molecular target: T2, activin B; assay: SPR (Biacore), FIG. 53
[10] = molecular target: T5, BMP10; assay: Biacore (SPR), ligands ranked by off-rate koff
[11] = molecular target: T6, BMP15; assay: Biacore (SPR), ligands ranked by off-rate koff

| binding [1] | binding [2] | binding [3] | binding [4] | binding [5] | binding [6] | binding [7] | binding [8] | binding [9] | binding [10] | binding [11] | Substance |
| --- | --- | --- | --- | --- | --- | --- | --- | --- | --- | --- | --- |
| binds | – | – | – | – | – | – | – | – | – | – | ALK4-Fc homodimer (from UniProt P36896 24-126) (Fc fusion) |
| binds | binds | binds | binds | binds | binds | – | – | – | – | – | ALK4-Fc:ActRIIA-Fc heterodimer (from UniProt P36896 24-126; P27037 20-135) (Fc fusion) |
| – | – | – | – | binds | – | binds | binds | binds | binds | binds | ALK4-Fc:BMPRII-Fc heterodimer (from UniProt P36896 24-126; O35607 27-150) (Fc fusion) |
| binds | – | binds | – | binds | binds | – | – | – | binds | – | ActRIIA-Fc homodimer (from UniProt P27037 20-135) (Fc fusion) |
